We go through 4 substances from publication PMC7721357.

By UniProt entry, the sequences of proteins in these tests, tags left out. Where a name states a change or a piece, a line headed by the entry shows the natural chain unless it says otherwise.
UniProt P51617: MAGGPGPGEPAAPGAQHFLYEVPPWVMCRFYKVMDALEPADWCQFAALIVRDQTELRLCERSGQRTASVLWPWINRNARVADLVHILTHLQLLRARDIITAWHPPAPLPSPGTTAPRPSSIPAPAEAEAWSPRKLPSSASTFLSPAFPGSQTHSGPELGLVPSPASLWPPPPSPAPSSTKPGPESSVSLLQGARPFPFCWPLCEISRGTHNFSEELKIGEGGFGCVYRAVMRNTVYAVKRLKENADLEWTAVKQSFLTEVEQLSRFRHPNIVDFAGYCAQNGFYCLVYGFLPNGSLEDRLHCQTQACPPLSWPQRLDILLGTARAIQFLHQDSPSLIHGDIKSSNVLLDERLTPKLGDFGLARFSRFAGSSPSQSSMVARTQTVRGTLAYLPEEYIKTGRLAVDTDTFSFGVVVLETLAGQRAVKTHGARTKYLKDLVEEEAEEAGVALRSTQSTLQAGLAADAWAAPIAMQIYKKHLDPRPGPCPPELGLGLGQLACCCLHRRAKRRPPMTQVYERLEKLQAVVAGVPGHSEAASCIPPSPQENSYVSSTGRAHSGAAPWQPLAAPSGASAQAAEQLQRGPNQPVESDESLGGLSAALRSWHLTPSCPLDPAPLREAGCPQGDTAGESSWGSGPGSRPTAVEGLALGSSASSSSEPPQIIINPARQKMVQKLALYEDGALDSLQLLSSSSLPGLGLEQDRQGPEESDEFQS
UniProt Q13546: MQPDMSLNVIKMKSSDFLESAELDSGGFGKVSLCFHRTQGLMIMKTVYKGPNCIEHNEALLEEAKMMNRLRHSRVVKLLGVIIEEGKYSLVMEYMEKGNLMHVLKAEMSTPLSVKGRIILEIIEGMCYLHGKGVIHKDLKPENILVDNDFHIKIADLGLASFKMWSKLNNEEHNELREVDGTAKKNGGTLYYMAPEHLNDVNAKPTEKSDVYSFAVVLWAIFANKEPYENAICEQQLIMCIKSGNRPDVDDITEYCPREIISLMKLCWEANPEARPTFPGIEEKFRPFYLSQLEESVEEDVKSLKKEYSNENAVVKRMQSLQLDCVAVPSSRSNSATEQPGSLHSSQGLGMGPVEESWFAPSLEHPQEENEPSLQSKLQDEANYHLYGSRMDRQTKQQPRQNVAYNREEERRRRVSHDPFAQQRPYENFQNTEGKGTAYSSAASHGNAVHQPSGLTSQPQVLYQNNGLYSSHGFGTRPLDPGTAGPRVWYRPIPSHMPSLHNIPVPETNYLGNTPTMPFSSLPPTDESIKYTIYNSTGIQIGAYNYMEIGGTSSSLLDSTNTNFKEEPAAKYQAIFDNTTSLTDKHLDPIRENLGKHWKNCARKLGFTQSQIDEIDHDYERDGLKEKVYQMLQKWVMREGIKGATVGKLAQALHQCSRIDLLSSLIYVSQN
UniProt O60603: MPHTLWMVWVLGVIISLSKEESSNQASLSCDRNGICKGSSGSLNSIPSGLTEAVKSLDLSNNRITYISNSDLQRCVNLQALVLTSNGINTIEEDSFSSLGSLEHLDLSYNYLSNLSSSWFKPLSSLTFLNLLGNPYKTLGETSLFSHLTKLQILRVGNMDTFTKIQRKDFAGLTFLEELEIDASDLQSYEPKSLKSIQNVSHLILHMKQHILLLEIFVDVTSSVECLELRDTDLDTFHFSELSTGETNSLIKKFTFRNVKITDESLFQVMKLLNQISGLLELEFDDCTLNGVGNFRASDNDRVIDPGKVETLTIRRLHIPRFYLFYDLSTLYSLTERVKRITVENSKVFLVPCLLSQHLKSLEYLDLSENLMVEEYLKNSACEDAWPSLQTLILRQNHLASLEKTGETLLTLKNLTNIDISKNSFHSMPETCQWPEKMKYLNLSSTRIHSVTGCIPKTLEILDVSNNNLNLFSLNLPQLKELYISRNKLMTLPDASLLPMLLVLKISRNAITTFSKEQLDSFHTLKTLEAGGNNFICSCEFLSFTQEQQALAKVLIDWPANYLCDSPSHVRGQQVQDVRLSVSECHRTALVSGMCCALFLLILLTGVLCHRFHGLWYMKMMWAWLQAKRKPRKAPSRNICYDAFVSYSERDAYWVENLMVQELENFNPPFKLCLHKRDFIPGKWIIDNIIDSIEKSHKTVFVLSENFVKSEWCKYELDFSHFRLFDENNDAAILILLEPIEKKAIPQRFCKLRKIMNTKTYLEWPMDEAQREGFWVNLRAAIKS
UniProt Q9Y4K3: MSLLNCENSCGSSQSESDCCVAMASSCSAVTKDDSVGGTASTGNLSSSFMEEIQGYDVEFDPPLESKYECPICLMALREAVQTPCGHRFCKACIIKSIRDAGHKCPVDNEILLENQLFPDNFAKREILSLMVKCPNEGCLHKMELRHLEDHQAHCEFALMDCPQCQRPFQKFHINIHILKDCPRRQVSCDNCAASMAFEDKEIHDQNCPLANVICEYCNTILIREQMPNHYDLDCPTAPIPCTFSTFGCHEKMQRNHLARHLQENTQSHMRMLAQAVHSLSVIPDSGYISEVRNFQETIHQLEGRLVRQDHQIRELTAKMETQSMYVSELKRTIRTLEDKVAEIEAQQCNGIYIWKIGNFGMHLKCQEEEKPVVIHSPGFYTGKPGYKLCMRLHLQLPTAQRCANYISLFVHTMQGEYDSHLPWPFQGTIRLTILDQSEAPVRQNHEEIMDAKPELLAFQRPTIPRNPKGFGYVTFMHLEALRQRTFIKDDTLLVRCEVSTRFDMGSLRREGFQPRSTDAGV

No constants are given. Whether binding was seen depends on the method and setting. Binding seen in cells or lysates may run through a third protein. These calls come from enrichment with a bait or labelling near it, and not all partners need be listed. Where a sequence is shown, tags or fusion partners need not be part of it.

The target of this experiment is T1, recombinant His-tagged rRv2626c (Mycobacterium tuberculosis H37Rv) (UniProt P9WJA3).
T1 sequence: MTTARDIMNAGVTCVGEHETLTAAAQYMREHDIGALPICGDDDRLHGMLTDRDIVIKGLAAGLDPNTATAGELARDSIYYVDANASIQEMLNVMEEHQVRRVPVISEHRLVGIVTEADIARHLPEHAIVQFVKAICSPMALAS
Nature of the experiment: affinity purification with mass spectrometry; only the target purified.
Regarding “IRAK1 (from UniProt P51617 1-712) (enzyme)”, the binding result is listed as “binds”. The result for “RIP1 (from UniProt Q13546 1-671) (enzyme)” reads “binds”; that for “TLR2 (from UniProt O60603 21-784) (receptor)”, “binds”; that for “endogenous TRAF6 of THP-1 cells (from UniProt Q9Y4K3 1-522)”, “binds”.
